In PubChem BioAssay AID1671190 (National Center for Advancing Translational Sciences (NCATS), 2021):
The whole screen tested about 580,000 compounds, of which about 6,100 (1.1%) were called active. The inconclusive results got no clear call from the source; some entries with a clear call stand among them for comparison. Calls come from the whole dose curve; as a rule, active = well fitted inhibition curve with a large enough effect; inconclusive = small, poorly fitted or top-dose-only effect, or another doubt; inactive = no such curve, though single readings can be large or run the other way. Where the call is inconclusive, the potency comes from a doubtful curve fit.

Chains of the proteins cited; added tags and fusions are not shown.
UniProt P18054, whole entry, looked up: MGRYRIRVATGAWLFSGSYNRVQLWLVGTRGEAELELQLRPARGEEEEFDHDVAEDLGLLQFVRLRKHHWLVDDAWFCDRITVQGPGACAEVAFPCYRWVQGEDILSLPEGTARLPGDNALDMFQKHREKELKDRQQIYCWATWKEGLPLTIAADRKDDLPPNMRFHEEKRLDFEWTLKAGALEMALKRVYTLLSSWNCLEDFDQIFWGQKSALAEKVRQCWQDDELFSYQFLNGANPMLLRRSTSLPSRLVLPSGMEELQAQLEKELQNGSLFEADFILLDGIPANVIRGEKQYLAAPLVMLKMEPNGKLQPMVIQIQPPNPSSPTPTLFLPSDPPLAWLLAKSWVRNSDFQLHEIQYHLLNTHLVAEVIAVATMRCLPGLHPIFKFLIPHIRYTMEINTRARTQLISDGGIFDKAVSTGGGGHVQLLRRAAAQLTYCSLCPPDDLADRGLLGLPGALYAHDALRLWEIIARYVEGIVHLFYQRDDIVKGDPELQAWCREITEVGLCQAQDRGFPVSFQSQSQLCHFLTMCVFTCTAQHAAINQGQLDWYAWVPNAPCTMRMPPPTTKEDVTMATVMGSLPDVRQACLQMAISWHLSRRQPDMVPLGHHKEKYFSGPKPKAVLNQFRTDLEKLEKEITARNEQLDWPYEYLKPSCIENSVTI

These molecules were tested against Polyunsaturated fatty acid lipoxygenase ALOX12 (Homo sapiens) (UniProt P18054) (assay: Primary qHTS assay for inhibitors of human arachidonate 12S-lipoxygenase (ALOX12): Round 2). Conditions: purified 12hLO, xylenol orange hydroperoxide absorbance; activity change, negative = inhibition: at 108 µM (top of the series) unless noted.
Procedure, shortened: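 Purified human 12hLO (150 nM final) in 25 mM Hepes, 0.01% Triton X-100, pH 7.0 was preincubated 15 min at room temperature with compound. Then 40 uM arachidonic acid was added, 30 min. Hydroperoxide was read by Fe-XO absorbance ratio 573/405 nm.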
% is set by controls: 0 for no effect and ±100 for the full control effect; potency is the fitted concentration of half-maximal effect.

| SMILES | Potency | activity change, negative = inhibition |
| --- | --- | --- |
| CC1(C)CC(CCN(Cc2ccccc2)C(=O)c2ccco2)(c2ccccc2)CCO1 (stereo not drawn) | inconclusive: 89.1 µM [inhibitor, single point] |  |
| Cc1ccc(/C(O)=C2\C(=O)C(=O)N(C)C2c2ccc([N+](=O)[O-])cc2)cc1 (stereo not drawn) | inconclusive: 35.5 µM [inhibitor, partial curve, poor fit] |  |
| Cc1nc2nc(C)n(-c3ccccc3)c2s1 | inconclusive: 0.891 µM [inhibitor, single point] |  |
| COC1CN(C2CCN(C(=O)c3cccnc3)CC2)C12CCOCC2 (stereo not drawn) |  | inactive: 34% |
| COc1ccc(CN2CCN(C(=O)c3cccs3)CC2)cc1 | inconclusive: 1.41 µM [inhibitor, full curve, poor fit] |  |
| O=C(COC(=O)C12CC3CC(CC(O)(C3)C1)C2)Nc1ccc([N+](=O)[O-])cc1Cl | inconclusive: 35.5 µM [inhibitor, single point] |  |
| CCC(C)c1ccccc1OCCOCCN1CCCC1 (stereo not drawn) | inconclusive: 0.891 µM [inhibitor, full curve, poor fit] |  |
| CCCCN(C(=O)/C=C/c1ccc(OC)cc1)C1CCS(=O)(=O)C1 (stereo not drawn) |  | inactive: 18.4% |
| Nc1c(-c2ccccc2)c(CSc2nc3ccccc3[nH]2)nn1-c1cccc(Cl)c1 |  | inactive: 6.41% |
| Cc1ccc([C@H]2C[C@@H](n3cc(COC(=O)c4ccccc4)nn3)[C@H](O)CN2CC2CCCCC2)cc1 |  | inactive: 0% |
| C#CCNC(=O)c1cc(-c2ccc3c(c2)OCCO3)nc2ccccc12 | inconclusive: 70.8 µM [inhibitor, partial curve, poor fit] |  |
| O=C(CCCSc1nc2ccccc2[nH]1)NCc1ccc(Cl)cc1 | inconclusive: 50.1 µM [inhibitor, partial curve, poor fit] |  |
| CCSC1=N/C(=C\c2ccc(-c3ccccc3[N+](=O)[O-])o2)C(=O)S1 | inconclusive: 12.6 µM [inhibitor, partial curve, poor fit] |  |
| CCc1ccc(NS(=O)(=O)c2ccc3[nH]c4c(c3c2)CCCCCC4)cc1 | inconclusive: 56.2 µM [inhibitor, partial curve, poor fit] |  |
| O=C(/C(=C\OCc1ccc(Cl)cc1)Cc1ccc(Cl)cc1)c1ccccc1 | inconclusive: 79.4 µM [inhibitor, partial curve, poor fit] |  |
| COc1ccc(CCNC(=O)c2cccn2C)cc1 |  | inactive: 263% |
| CCOc1ncccc1C(=O)OCC(=O)c1ccc(F)cc1 |  | inactive: -21.6% |
| O=C(NCc1ccco1)C1CCCN1C(=O)Nc1cccc(Cl)c1 (stereo not drawn) | inconclusive: 50.1 µM [inhibitor, partial curve, poor fit] |  |
| COc1ccc2oc(C(=O)Nc3nc4ccc(S(C)(=O)=O)cc4s3)c(C)c2c1 |  | inactive: -20.8% |
| O=C(Nc1ccccc1F)c1ccc(CN2CCN(c3ccccc3)CC2)cc1 |  | inactive: 1.02% |
| O/N=C(\c1ccc(Cl)cc1)c1cc2ccccc2o1 | inconclusive: 44.7 µM [inhibitor, partial curve] |  |
| CCc1nc(NCC(C)C)c(C#N)c2c1COC(C)(C)C2 |  | inactive: 27.8% |
| CC(C)C(CCNC1CCN(C)CC1)c1ccc(Cl)cc1 (stereo not drawn) | inconclusive: 0.398 µM [inhibitor, full curve, poor fit] |  |

| SMILES | Potency | activity change, negative = inhibition |
| --- | --- | --- |
| COc1cccc(-c2nc3n(n2)C(c2ccccc2Cl)C(C(N)=O)=C(C)N3)c1 (stereo not drawn) |  | inactive: 337% |
| CCCSc1nnc2n(-c3ccccc3OC)c(=O)c3c4c(sc3n12)CCC4 | inconclusive: 44.7 µM [inhibitor, single point] |  |
| COc1ccc(CNC(=O)C(=O)NCc2cccnc2)cc1 |  | inactive: -4.93% |
| CC1=C(C(=O)Nc2ccccc2)C(c2ccc(O)cc2)n2nc(-c3ccc(Cl)cc3)nc2N1 (stereo not drawn) | inconclusive: 15.8 µM [inhibitor, partial curve, poor fit] |  |
| O=C(CNCc1ccco1)Nc1ccc(N2CCCCCC2)cc1 | inconclusive: 2 µM [inhibitor, full curve, poor fit] |  |
| C=CCn1c(SCc2nc3ccccc3nc2C)nnc1-c1ccoc1C | active: 31.6 µM |  |
| CC(C)Cn1nnnc1SCC(=O)N(Cc1cccs1)c1ccc2c(c1)OCCO2 | inconclusive: 7.08 µM [inhibitor, full curve, poor fit] |  |
| Cc1ccc(C(=O)Nc2cc([N+](=O)[O-])ccc2C)cc1 |  | inactive: -9.7% |
| CC1CN(C2CCN(S(=O)(=O)c3ccc(F)cc3)CC2)CC(C)O1 (stereo not drawn) |  | inactive: -18.3% |
| COc1ccc2c(c1)NC(c1ccc(Cl)cc1)=NC(c1cccs1)=N2 | inconclusive: 112 µM [inhibitor, partial curve, poor fit] |  |
| CCC(=O)Nc1ccccc1-c1nnc(SCC(=O)Nc2cc(Cl)ccc2Cl)[nH]c1=O | inconclusive: 28.2 µM [inhibitor, partial curve, poor fit] |  |
| Cn1c(/C=C/c2ccc(Cl)cc2Cl)c([N+](=O)[O-])c(=O)n(C)c1=O |  | inactive: -3.55% |
| Cc1ccc(S(=O)(=O)NCCSc2nnnn2-c2ccccc2)cc1 | inconclusive: 100 µM [inhibitor, partial curve, poor fit] |  |
| Cc1oc2ccc(O)c(CN3CCC(C)CC3)c2c1C(=O)Nc1ccccc1 |  | inconclusive: -50.3% [inhibitor] |
| Cc1ccc2cn[nH]c2c1NC(=S)NC(=O)c1ccccc1 | inconclusive: 50.1 µM [inhibitor, partial curve, poor fit] |  |
| Cc1ccc(/C=N/NS(=O)(=O)c2ccc([N+](=O)[O-])cc2)o1 |  | inactive: -9.7% |
| O=c1c(Cc2ccc(Cl)cc2Cl)c(O)ccn1Cc1ccc(Cl)cc1 |  | inactive: -27.5% |
| CCN(CC)C(=O)CC(c1cc(OC)c(OC)c(OC)c1)c1c(OC)cc(OC)c2c(-c3ccccc3)cc(=O)oc12 (stereo not drawn) | active: 39.8 µM |  |
| CCn1nc(-c2ccc(OC)nc2)nc1N(C)C | inconclusive: 8.91 µM [inhibitor, partial curve, poor fit] |  |
| COc1ccc(C(=O)/C(=C/c2ccc(C)o2)c2nc3ccccc3o2)cc1OC | inconclusive: 50.1 µM [inhibitor, partial curve, poor fit] |  |
| O=C(NCc1cccc(F)c1)c1nc2c(o1)CCN(Cc1cccc(F)c1F)CC2 |  | inactive: -11.9% [at 176 µM] |
| Cc1sc(NC(=O)Nc2ccccc2)c(C(N)=O)c1C | inconclusive: 39.8 µM [inhibitor, partial curve, poor fit] |  |
| O=C(O)c1cccc2c1C(=O)c1cccc3snc-2c13 |  | inactive: -19.4% |

| SMILES | Potency | activity change, negative = inhibition |
| --- | --- | --- |
| Cc1ccc(NC(=O)C2CCCN(C3=NS(=O)(=O)c4ccccc43)C2)c(O)c1 (stereo not drawn) | inconclusive: 89.1 µM [inhibitor, single point] |  |
| Cc1ccc(S(=O)(=O)N/N=C\c2ccc([N+](=O)[O-])o2)cc1C | inconclusive: 5.62 µM [inhibitor, partial curve, poor fit] |  |
| COc1cc(OC)cc(C(=O)Nc2ccc3oc(-c4ccccc4F)cc(=O)c3c2)c1 | inconclusive: 79.4 µM [inhibitor, single point] |  |
| CCOC(=O)c1oc2ccccc2c1CN1CCN(c2ccccc2)CC1 | inconclusive: 31.6 µM [inhibitor, partial curve, poor fit] |  |
| COC(=O)c1c(NC(=O)C2CCCCC2C(=O)O)sc2c1CCCCC2 (stereo not drawn) | inconclusive: 56.2 µM [inhibitor, partial curve, poor fit] |  |
| Cc1ncccc1C(=O)N1CCC2(CC1)CC(N(Cc1ccccc1)C1CC1)CCO2 (stereo not drawn) |  | inactive: -0.153% |
| OC(CCN1CC2CCC(CC2)C1)(Cc1ccccc1)c1ccco1 (stereo not drawn) | active: 2.51 µM |  |
| CCOC(=O)C1CCN(C(=O)Nc2ccc(OCc3ccccc3)cc2)CC1 | inconclusive: 100 µM [inhibitor, single point] |  |
| Cc1cccc(NC(=O)N2CCN(Cc3nc(-c4cccc(C(F)(F)F)c4)no3)CC2)c1 | inconclusive: 50.1 µM [inhibitor, single point] |  |
| CCn1c(=O)n(CC)c2cc(NC(=O)[C@H]3CC[C@@H](N)C3)c(C)cc21 |  | inactive: 22.5% |
| O=c1cc(CN2CCN(CCO)CC2)c2cc(O)ccc2o1 | inconclusive: 50.1 µM [inhibitor, partial curve, poor fit] |  |
| Cn1c(=O)[nH]c(=O)c2c1nc(NCCO)n2CCOc1ccccc1 | inconclusive: 50.1 µM [inhibitor, partial curve, poor fit] |  |
| Cc1ccc(C(=O)OCc2ccc(C#N)cc2)cc1O | inconclusive: 158 µM [inhibitor, single point] |  |
| CCCCC(=O)Nc1nnnn1CCC | inconclusive: 5.62 µM [inhibitor, full curve, poor fit] |  |
| CC(Nc1ccc(N2CCOCC2)cc1)c1nc2scc(-c3cccs3)c2c(=O)[nH]1 (stereo not drawn) | active: 35.5 µM |  |
| CC1=C(C(=O)OC(C)C)C(c2ccc(Cl)cc2)n2c(sc(=Cc3ccc(OCC(=O)O)cc3)c2=O)=N1 (stereo not drawn) | inconclusive: 39.8 µM [inhibitor, partial curve] |  |
| CCCN(Cc1ccc(N(C)C)cc1)CC1CC1 | inconclusive: 14.1 µM [inhibitor, full curve, poor fit] |  |
| COc1ccc(CN2C[C@H]3CN(S(=O)(=O)c4ccc(OC)cc4)CCN3C2=O)cc1 | inconclusive: 35.5 µM [inhibitor, full curve] |  |
| O=C(Nc1ccc(Br)cc1)C1C2CCC3C(CCC21)C3(Cl)Cl (stereo not drawn) | inconclusive: 56.2 µM [inhibitor, partial curve, poor fit] |  |
| Cc1ccncc1-c1c(C)nn2c1N(Cc1cccc(O)c1)CCC2 | active: 31.6 µM |  |
| O=C(Nc1nc(-c2ccccc2)cs1)c1ccc(S(=O)(=O)N2CCc3ccccc32)cc1 | inconclusive: 100 µM [inhibitor, single point] |  |
| CN(CC[C@H]1CN(C(=O)C(C)(C)C)CC[C@H]1CC(=O)O)c1ccccc1 | inconclusive: 28.2 µM [inhibitor, full curve] |  |

5 compounds from above, ordered by heavy-atom count, ascending.

| SMILES | Potency | activity change, negative = inhibition |
| --- | --- | --- |
| CCCCC(=O)Nc1nnnn1CCC | inconclusive: 5.62 µM [inhibitor, full curve, poor fit] |  |
| O=c1cc(CN2CCN(CCO)CC2)c2cc(O)ccc2o1 | inconclusive: 50.1 µM [inhibitor, partial curve, poor fit] |  |
| Cc1ccncc1-c1c(C)nn2c1N(Cc1cccc(O)c1)CCC2 | active: 31.6 µM |  |
| CN(CC[C@H]1CN(C(=O)C(C)(C)C)CC[C@H]1CC(=O)O)c1ccccc1 | inconclusive: 28.2 µM [inhibitor, full curve] |  |
| CC1=C(C(=O)OC(C)C)C(c2ccc(Cl)cc2)n2c(sc(=Cc3ccc(OCC(=O)O)cc3)c2=O)=N1 (stereo not drawn) | inconclusive: 39.8 µM [inhibitor, partial curve] |  |
